No constants are given. Whether binding was seen depends on the method and setting. In cells and extracts the contact can be indirect. These calls come from enrichment with a bait or labelling near it, and not all partners need be listed. For some assays here: A no says only that the protein was not detected with the bait.
How the values were obtained:
[1] = target: FLAG-HA-tagged full-length human AKAP95 (human) (UniProt O43823); assay: affinity purification with mass spectrometry; nuclear extracts of Flp-In-293 stable lines on anti-FLAG M2 agarose, BC300 with 0.1% NP40, 4 °C, 6 h; FLAG peptide elution, SDS-PAGE, MALDI mass spectrometry; proteins found with control cells excluded
[2] = target: FLAG-HA-tagged AKAP95 (101–692) (human) (UniProt O43823); assay: as above

By UniProt entry, the sequences of proteins in these tests, tags left out. Where a name states a change or a piece, a line headed by the entry shows the natural chain unless it says otherwise. Chains listed by the source or under a name are the forms on record and can include a tag or linker. Residues count along the entry.
UniProt O43823: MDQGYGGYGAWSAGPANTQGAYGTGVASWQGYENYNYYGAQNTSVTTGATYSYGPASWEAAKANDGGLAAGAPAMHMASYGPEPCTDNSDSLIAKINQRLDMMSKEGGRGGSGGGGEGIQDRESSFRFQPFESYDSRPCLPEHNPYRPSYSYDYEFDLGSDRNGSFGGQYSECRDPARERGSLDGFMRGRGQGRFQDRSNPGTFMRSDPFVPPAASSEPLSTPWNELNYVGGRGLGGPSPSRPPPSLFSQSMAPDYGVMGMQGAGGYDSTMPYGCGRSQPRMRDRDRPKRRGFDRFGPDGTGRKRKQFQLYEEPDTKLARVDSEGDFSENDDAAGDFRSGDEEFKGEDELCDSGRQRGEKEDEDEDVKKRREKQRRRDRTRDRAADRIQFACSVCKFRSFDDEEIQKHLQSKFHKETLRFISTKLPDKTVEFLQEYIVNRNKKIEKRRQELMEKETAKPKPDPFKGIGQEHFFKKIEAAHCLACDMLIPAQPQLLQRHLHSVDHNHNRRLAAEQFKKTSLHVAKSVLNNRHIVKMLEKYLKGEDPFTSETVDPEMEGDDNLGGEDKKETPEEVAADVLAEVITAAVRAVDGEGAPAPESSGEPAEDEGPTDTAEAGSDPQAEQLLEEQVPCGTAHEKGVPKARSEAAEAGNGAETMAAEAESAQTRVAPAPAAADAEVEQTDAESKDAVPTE
FLAG-HA-tagged AKAP95 (101–692): residues 101-692 of O43823

| binding [1] | binding [2] | Binder |
| --- | --- | --- |
| binds | no binding | NHN1 (endogenous) (protein, UniProt Q86VM9 1-953) MDVAESPERDPHSPEDEEQPQGLSDDDILRDSGSDQDLDGAGVRASDLEDEESAARGPSQEEEDNHSDEEDRASEPKSQDQDSEVNELSRGPTSSPCEEEGDEGEEDRTSDLRDEASSVTRELDEHELDYDEEVPEEPAPAVQEDEAEKAGAEDDEEKGEGTPREEGKAGVQSVGEKESLEAAKEKKKEDDDGEIDDGEIDDDDLEEGEVKDPSDRKVRPRPTCRFFMKGNCTWGMNCRFIHPGVNDKGNYSLITKADPFPPNGAPPLGPHPLMPANPWGGPVVDEILPPPPPEPPTESAWERGLRHAKEVLKKATIRKEQEPDFEEKRFTVTIGEDEREFDKENEVFRDWNSRIPRDVRDTVLEPYADPYYDYEIERFWRGGQYENFRVQYTETEPYHNYRERERERERENRQRERERERERDRERERRQRERERERERERDKERQRRKEEWERERAKRDEKDRQHRDRDREKEREKEKGKPKPRSPQPPSRQAEPPKKEAATTGPQVKRADEWKDPWRRSKSPKKKLGVSVSPSRARRRRKTSASSASASNSSRSSSRSSSYSGSGSSRSRSRSSSYSSYSSRSSRHSSFSGSRSRSRSFSSSPSPSPTPSPHRPSIRTKGEPAPPPGKAGEKSVKKPAPPPAPPQATKTTAPVPEPTKPGDPREARRKERPARTPPRRRTLSGSGSGSGSSYSGSSSRSRSLSVSSVSSVSSATSSSSSAHSVDSEDMYADLASPVSSASSRSPAPAQTRKEKGKSKKEDGVKEEKRKRDSSTQPPKSAKPPAGGKSSQQPSTPQQAPPGQPQQGTFVAHKEIKLTLLNKAADKGSRKRYEPSDKDRQSPPPAKRPNTSPDRGSRDRKSGGRLGSPKPERQRGQNSKAPAAPADRKRQLSPQSKSSSKVTSVPGKASDPGAASTKSGKASTLSRREELLKQLKAVEDAIARKRAKIPGKA |
| binds | no binding | ZNF326 (endogenous) (protein, UniProt Q5BKZ1 1-582) MDFEDDYTHSACRNTYQGFNGMDRDYGPGSYGGMDRDYGHGSYGGQRSMDSYLNQSYGMDNHSGGGGGSRFGPYESYDSRSSLGGRDLYRSGYGFNEPEQSRFGGSYGGRFESSYRNSLDSFGGRNQGGSSWEAPYSRSKLRPGFMEDRGRENYSSYSSFSSPHMKPAPVGSRGRGTPAYPESTFGSRNYDAFGGPSTGRGRGRGHMGDFGSIHRPGIVVDYQNKSTNVTVAAARGIKRKMMQPFNKPSGTFIKKPKLAKPMEKISLSKSPTKTDPKNEEEEKRRIEARREKQRRRREKNSEKYGDGYRMAFTCSFCKFRTFEEKDIELHLESSSHQETLDHIQKQTKFDKVVMEFLHECMVNKFKKTSIRKQQTNNQTEVVKIIEKDVMEGVTVDDHMMKVETVHCSACSVYIPALHSSVQQHLKSPDHIKGKQAYKEQIKRESVLTATSILNNPIVKARYERFVKGENPFEIQDHSQDQQIEGDEEDEEKIDEPIEEEEDEDEEEEAEEVGEVEEVEEVEEVREGGIEGEGNIQGVGEGGEVGVVGEVEGVGEVEEVEELEEETAKEEPADFPVEQPEEN |
| binds | no binding | RBM14 (endogenous) (protein, UniProt Q96PK6 1-669) MKIFVGNVDGADTTPEELAALFAPYGTVMSCAVMKQFAFVHMRENAGALRAIEALHGHELRPGRALVVEMSRPRPLNTWKIFVGNVSAACTSQELRSLFERRGRVIECDVVKDYAFVHMEKEADAKAAIAQLNGKEVKGKRINVELSTKGQKKGPGLAVQSGDKTKKPGAGDTAFPGTGGFSATFDYQQAFGNSTGGFDGQARQPTPPFFGRDRSPLRRSPPRASYVAPLTAQPATYRAQPSVSLGAAYRAQPSASLGVGYRTQPMTAQAASYRAQPSVSLGAPYRGQLASPSSQSAAASSLGPYGGAQPSASALSSYGGQAAAASSLNSYGAQGSSLASYGNQPSSYGAQAASSYGVRAAASSYNTQGAASSLGSYGAQAASYGAQSAASSLAYGAQAASYNAQPSASYNAQSAPYAAQQAASYSSQPAAYVAQPATAAAYASQPAAYAAQATTPMAGSYGAQPVVQTQLNSYGAQASMGLSGSYGAQSAAAATGSYGAAAAYGAQPSATLAAPYRTQSSASLAASYAAQQHPQAAASYRGQPGNAYDGAGQPSAAYLSMSQGAVANANSTPPPYERTRLSPPRASYDDPYKKAVAMSKRYGSDRRLAELSDYRRLSESQLSFRRSPTKSSLDYRRLPDAHSDYARYSGSYNDYLRAAQMHSGYQRRM |
| binds | no binding | SFRS2 (endogenous) (protein, UniProt Q01130 1-221) MSYGRPPPDVEGMTSLKVDNLTYRTSPDTLRRVFEKYGRVGDVYIPRDRYTKESRGFAFVRFHDKRDAEDAMDAMDGAVLDGRELRVQMARYGRPPDSHHSRRGPPPRRYGGGGYGRRSRSPRRRRRSRSRSRSRSRSRSRSRYSRSKSRSRTRSRSRSTSKSRSARRSKSKSSSVSRSRSRSRSRSRSRSPPPVSKRESKSRSRSKSPPKSPEEEGAVSS |
| binds | – | hnRNP M (endogenous) (protein, UniProt P52272 1-730) MAAGVEAAAEVAATEIKMEEESGAPGVPSGNGAPGPKGEGERPAQNEKRKEKNIKRGGNRFEPYANPTKRYRAFITNIPFDVKWQSLKDLVKEKVGEVTYVELLMDAEGKSRGCAVVEFKMEESMKKAAEVLNKHSLSGRPLKVKEDPDGEHARRAMQKVMATTGGMGMGPGGPGMITIPPSILNNPNIPNEIIHALQAGRLGSTVFVANLDYKVGWKKLKEVFSMAGVVVRADILEDKDGKSRGIGTVTFEQSIEAVQAISMFNGQLLFDRPMHVKMDERALPKGDFFPPERPQQLPHGLGGIGMGLGPGGQPIDANHLNKGIGMGNIGPAGMGMEGIGFGINKMGGMEGPFGGGMENMGRFGSGMNMGRINEILSNALKRGEIIAKQGGGGGGGSVPGIERMGPGIDRLGGAGMERMGAGLGHGMDRVGSEIERMGLVMDRMGSVERMGSGIERMGPLGLDHMASSIERMGQTMERIGSGVERMGAGMGFGLERMAAPIDRVGQTIERMGSGVERMGPAIERMGLSMERMVPAGMGAGLERMGPVMDRMATGLERMGANNLERMGLERMGANSLERMGLERMGANSLERMGPAMGPALGAGIERMGLAMGGGGGASFDRAIEMERGNFGGSFAGSFGGAGGHAPGVARKACQIFVRNLPFDFTWKMLKDKFNECGHVLYADIKMENGKSKGCGVVKFESPEVAERACRMMNGMKLSGREIDVRIDRNA |
| binds | no binding | HA95 (endogenous) (protein, UniProt Q9ULX6 1-646) MSYTGFVQGSETTLQSTYSDTSAQPTCDYGYGTWNSGTNRGYEGYGYGYGYGQDNTTNYGYGMATSHSWEMPSSDTNANTSASGSASADSVLSRINQRLDMVPHLETDMMQGGVYGSGGERYDSYESCDSRAVLSERDLYRSGYDYSELDPEMEMAYEGQYDAYRDQFRMRGNDTFGPRAQGWARDARSGRPMASGYGRMWEDPMGARGQCMSGASRLPSLFSQNIIPEYGMFQGMRGGGAFPGGSRFGFGFGNGMKQMRRTWKTWTTADFRTKKKKRKQGGSPDEPDSKATRTDCSDNSDSDNDEGTEGEATEGLEGTEAVEKGSRVDGEDEEGKEDGREEGKEDPEKGALTTQDENGQTKRKLQAGKKSQDKQKKRQRDRMVERIQFVCSLCKYRTFYEDEMASHLDSKFHKEHFKYVGTKLPKQTADFLQEYVTNKTKKTEELRKTVEDLDGLIQQIYRDQDLTQEIAMEHFVKKVEAAHCAACDLFIPMQFGIIQKHLKTMDHNRNRRLMMEQSKKSSLMVARSILNNKLISKKLERYLKGENPFTDSPEEEKEQEEAEGGALDEGAQGEAAGISEGAEGVPAQPPVPPEPAPGAVSPPPPPPPEEEEEGAVPLLGGALQRQIRGIPGLDVEDDEEGGGGAP |

Reference: article PMC5105168
